In US20210206856A1:
No constants are given. Whether binding was seen depends on the method and setting. Binding calls can cover weak binding; strength is not graded here.

biological target: cyno MAdCAM protein (cyno); assay: ELISA

Binder | binding
MAdCAM Antibody Table 1 Clone 50 (scFv) scFv: QVQLVQSGAEVKKPGASVKVSCKASGYTFTSYDINWVRQAPGQGLEWMGWINPNSGTTGYAQKFQGRVTMTRDTSTSTVYMELSSLRSEDTAVYYCARSPYYYYGMDVWGQGTTVTVSSGGGGSGGGGSGGGGSGGGGSDIQMTQSPSSLSASVGDRVTITCRASHFISRWVAWYQQKPGKAPKLLIYAASTLQSGVPSRFSGSGSGTDFTLTISSLQPEDFATYYCQQSYSGISFGPGTKVDIK | binds
MAdCAM Antibody Table 1 Clone 53 (scFv) scFv: QVQLVQSGAEVKKPGASVKVSCKASGYTFTSYDINWVRQAPGQGLEWMGWMNPNSGNTGYAQKFQGRVTMTRDTSTSTVYMELSSLRSEDTAVYYCAKDSDYSNLLWDYWGQGTLVTVSSGGGGSGGGGSGGGGSGGGGSDIQMTQSPSSLSASVGDRVTITCRASQDITNDLGWYQQKPGKAPKLLIYQASSLESGVPSRFSGSGSGTDFTLTISSLQPEDFATYYCQQSYTIPLTFGQGTKVEIK | binds
MAdCAM Antibody Table 1 Clone 49 (scFv) scFv: QVQLVQSGAEVKKPGASVKVSCKASGDTFTGYYIHWVRQAPGQGLEWMGWINPNSGGTNYAQKFQGRVTMTRDTSTSTVYMELSSLRSEDTAVYYCARSGLWLGSYYGMDVWGQGTLVTVSSGGGGSGGGGSGGGGSGGGGSDIQMTQSPSSLSASVGDRVTITCRASQTISIWLAWYQQKPGKAPKLLIYDASTLQSGVPSRFSGSGSGTDFTLTISSLQPEDFATYYCQQYSSYPLTFGQGTKVEIK | binds
MAdCAM Antibody Table 1 Clone 54 (scFv) scFv: EVQLLESGGGLVQPGGSLRLSCAASGFTFGDYAMSWVRQAPGKGLEWVAVVSYDGTNKYYADSVKGRFTISRDNSKNTLYLQMNSLRAEDTAVYYCAKDICSSTSCYFDLWGRGTLVTVSSGGGGSGGGGSGGGGSGGGGSDIQMTQSPSSLSASVGDRVTITCRASQNINNYVNWYQQKPGKAPKLLIYDASNLETGVPSRFSGSGSGTDFTLTISSLQPEDFATYYCQQANSFPPTFGQGTRLEIK | binds
MAdCAM Antibody Table 1 Clone 52 (scFv) scFv: EVQLLESGGGLVQPGGSLRLSCAASGFTFSNSDMNWVRQAPGKGLEWVAHIWNDGSQKYYADSVKGRFTISRDNSKNTLYLQMNSLRAEDTAVYYCARDRTDPGYSSAMDVWGQGTTVTVSSGGGGSGGGGSGGGGSGGGGSDIQMTQSPSSLSASVGDRVTITCRASQDIRNYLGWYQQKPGKAPKLLIYDASSLETGVPSRFSGSGSGTDFTLTISSLQPEDFATYYCQQATSLPLTFGGGTKVEIK | binds
MAdCAM Antibody Table 1 Clone 57 (scFv) scFv: QVQLVQSGAEVKKPGASVKVSCKASGYTFTSYYMHWVRQAPGQGLEWMGIINPSGGSTSYAQKFQGRVTMTRDTSTSTVYMELSSLRSEDTAVYYCARDSVAGTGGRYYGMDVWGQGTLVTVSSGGGGSGGGGSGGGGSGGGGSDIQMTQSPSSLSASVGDRVTITCRASQGISNYFAWYQQKPGKAPKLLIYAASSLQGGVPSRFSGSGSGTDFTLTISSLQPEDFATYYCQQSYSLPYTFGQGTKLEIK | binds
MAdCAM Antibody Table 1 Clone 55 (scFv) scFv: QVQLVQSGAEVKKPGASVKVSCKASGYTFTSYYMHWVRQAPGQGLEWMGIIDPSGGSTSYAQKFQGRVTMTRDTSTSTVYMELSSLRSEDTAVYYCAREEWSSGGVGYFDYWGQGTLVTVSSGGGGSGGGGSGGGGSGGGGSDIQMTQSPSSLSASVGDRVTITCRASQGISSYLAWYQQKPGKAPKLLIYATSSLQTGVPSRFSGSGSGTDFTLTISSLQPEDFATYYCQQTYSIPITFGQGTRLEIK | binds

Other lines, results leading:

binding | Binder
binds | MAdCAM Antibody Table 1 Clone 51 (scFv) scFv: EVQLLESGGGLVQPGGSLRLSCAASGFTFNNYGMNWVRQAPGKGLEWVSRINSDGSSTSYADSVKGRFTISRDNSKNTLYLQMNSLRAEDTAVYYCARGAYYYYYMDVWGQGTLVTVSSGGGGSGGGGSGGGGSGGGGSEIVMTQSPATLSVSPGERATLSCRASQSVSGSYLAWYQQKPGQAPRLLIYATSSRASGIPARFSGSGSGTEFTLTISSLQSEDFAVYYCQQYYSGLTFGQGTKVEIK
binds | MAdCAM Antibody Table 1 Clone 48 (scFv) scFv: EVQLLESGGGLVQPGGSLRLSCAASGFTFSDHGMHWVRQAPGKGLEWVSVIYGGESTYYADSVKGRFTISRDNSKNTLYLQMNSLRAEDTAVYYCARDPAVAGGGIFDYWGQGTLVTVSSGGGGSGGGGSGGGGSGGGGSDIQMTQSPSSLSASVGDRVTITCRASQGISNYLAWYQQKPGKAPKLLIYDASNLETGVPSRFSGSGSGTDFTLTISSLQPEDFATYYCQQSYSTCYTFGQGTKLEIK
binds | MAdCAM Antibody Table 1 Clone 44 (scFv) scFv: EVQLVESGGGLVKPGGSLRLSCAASGFTFSSYWMSWVRQAPGKGLEWVSAIGTGGGTYYAAPVKGRFTISRDDSKNTLYLQMNSLKTEDTAVYYCAREWLVPYYGMDVWGQGTTVTVSSGGGGSGGGGSGGGGSGGGGSDIQMTQSPSSLSASVGDRVTITCRASQSISRWLAWYQQKPGKAPKLLIYGASNLQSGVPSRFSGSGSGTDFTLTISSLQPEDFATYYCQQSYSTPWTFGQGTKVEIK
binds | MAdCAM Antibody Table 1 Clone 56 (scFv) scFv: EVQLLESGGGLVQPGGSLRLSCAASGFTFDDYAMHWVRQAPGKGLEWVSAISGGGEDTYYADSVKGRFTISRDNSKNTLYLQMNSLRAEDTAVYYCARDASYGGNYGMDVWGQGTTVTVSSGGGGSGGGGSGGGGSGGGGSDIQMTQSPSSLSASVGDRVTITCQASQDIRNYLNWYQQKPGKAPKLLIYKASSLESGVPSRFSGSGSGTDFTLTISSLQPEDFATYYCQQANSYPVTFGGGTKVEIK
binds | MAdCAM Antibody Table 2 Clone 12 (antibody, human IgG1, V domains shown) VH: QVQLVQSGAEVKKPGASVKVSCKASGYTLTTWYMYWVRQAPGQGLEWMGWINPNRGATNYAQKFQGRVTMTRDTSTSTVYMELSSLRSEDTAVYYCAKGDLWGAMDVWGQGTLVTVSS VL: DIQMTQSPSSLSASVGDRVTITCRASDNIGSWLAWYQQKPGKAPKLLIYAASSLQSGVPSRFSGSGSGTDFTLTISSLQPEDFATYYCQQGYSTPPTFGQGTKVEIK
binds | MAdCAM Antibody Table 2 Clone 2 (antibody, human IgG1, V domains shown) VH: QVQLVQSGAEVKKPGASVKVSCKASGYPFIGYYLHWVRQAPGQGLEWMGIINPSGGSTSYAQKFQGRVTMTRDTSTSTVYMELSSLRSEDTAVYYCAREGRLSYGMDAWGQGTLVTVSS VL: DIQMTQSPSSLSASVGDRVTITCRASQSISSYLAWYQQKPGKAPKLLIYGASTLESGVPSRFSGSGSGTDFTLTISSLQPEDFATYYCQQTWGPPFTFGQGTKLEIK
binds | MAdCAM Antibody Table 2 Clone 3 (antibody, human IgG1, V domains shown) VH: QVQLVQSGAEVKKPGASVKVSCKASGYPFIGQYLHWVRQAPGQGLEWMGIINPSGGSTSYAQKFQGRVTMTRDTSTSTVYMELSSLRSEDTAVYYCAREGRLSYGMDAWGQGTLVTVSS VL: DIQMTQSPSSLSASVGDRVTITCRASQSISSYLAWYQQKPGKAPKLLIYGASTLESGVPSRFSGSGSGTDFTLTISSLQPEDFATYYCQQTWGPPFTFGQGTKLEIK
binds | MAdCAM Antibody Table 1 Clone 58 (scFv) scFv: QVQLVQSGAEVKKPGASVKVSCKASGYTFTGYYMHWVRQAPGQGLEWMGIINPSGGNTKYAQKFQGRVTMTRDTSTSTVYMELSSLRSEDTAVYYCTTADYYYYMDVWGKGTTVTVSSGGGGSGGGGSGGGGSGGGGSDIQMTQSPSSLSASVGDRVTITCRASQGISNYLAWYQQKPGKAPKLLIYAASSLQSGVPSRFSGSGSGTDFTLTISSLQPEDFATYYCQQYYSNADFGQGTKVEIK
